Source: PMC3956856, “Interaction of Kinase-Interaction-Motif Protein Tyrosine Phosphatases with the Mitogen-Activated Protein Kinase ERK2” (PLoS ONE, 2014)
These are yes or no findings as the source states them, for the method shown. Some binding calls cover weakened binding; strength is not graded here.

Chains of the proteins cited; added tags and fusions are not shown.
UniProt P63086: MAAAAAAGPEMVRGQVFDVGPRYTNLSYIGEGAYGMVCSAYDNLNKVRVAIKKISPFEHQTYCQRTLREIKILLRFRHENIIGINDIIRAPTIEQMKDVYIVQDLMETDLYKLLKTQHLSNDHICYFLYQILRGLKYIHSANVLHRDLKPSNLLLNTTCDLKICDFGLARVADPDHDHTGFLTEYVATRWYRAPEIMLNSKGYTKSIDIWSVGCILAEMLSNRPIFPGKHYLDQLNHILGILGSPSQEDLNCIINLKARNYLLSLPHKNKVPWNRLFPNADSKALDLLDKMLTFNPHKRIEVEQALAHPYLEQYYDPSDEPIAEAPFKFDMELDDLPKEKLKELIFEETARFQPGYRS

Biological target: extracellular signal-regulated kinase 2 (ERK2), unphosphorylated (UniProt P63086)
Assay: SAXS; unphosphorylated ERK2 incubated 1:1 with STEP 213-539 at room temperature for 30 min, complex purified by SEC (Superdex 75 26/60); 50 mM HEPES pH 6.8, 150 mM NaCl, 5 mM dithiothreitol; 0.7, 1.2 and 1.7 mg/ml; both purified

B1: STEP (residues 213-539, mouse) (domain or fragment, UniProt P54830 213-539, looked up)
chain: MGLQERRGSNVSLTLDMCTPGCNEEGFGYLVSPREESAHEYLLSASRVLRAEELHEKALDPFLLQAEFFEIPMNFVDPKEYDIPGLVRKNRYKTILPNPHSRVRLTSPDPEDPLSSYINANYIRGYSGEEKVYIATQGPIVSTVADFWRMVWQERTPIIVMITNIEEMNEKCTEYWPEEQVVHDGVEITVQKVIHTEDYRLRLISLRRGTEERSLKHYWFTSWPDQKTPDRAPPLLHLVREVEEAAQQEGPHCSPIIVHCSAGIGRTGCFIATSICCQQLRREGVVDILKTTCQLRQDRGGMIQTCEQYQFVHHAMSLYEKQLSLQS
notes: STEP (PTPN5, striatal enriched protein tyrosine phosphatase), mouse, residues 213-539 (KIM, KIS and catalytic domain); The results loosely call this construct 'full-length STEP'; the construct is residues 213-539; also called STEP_(213-539); PTPN5; source: final SEC
Question: How did the binding turn out when B1 was run?
Answer: The binding was “binds”.
